Source: PubChem BioAssay AID1259354 (Paczesny and Yang Labs, IUPUI and University of Michigan, 2018)
“And” between values parts separate entries of the source, which are not always exact repeats. Equal values may be shown once. Among all 78,000 compounds or so, about 1,800 (2.3%) were called active. Inconclusive results, whose numbers are uncertain, are shown with a selection of clear calls. Cut-off read from the data, not from the text of the source: active = inhibition above about 30%; inconclusive = mostly about 10% to 28%; inactive = weaker than that.

By UniProt entry, the sequences of proteins in these tests, tags left out. Where a name states a change or a piece, a line headed by the entry shows the natural chain unless it says otherwise.
UniProt Q01638: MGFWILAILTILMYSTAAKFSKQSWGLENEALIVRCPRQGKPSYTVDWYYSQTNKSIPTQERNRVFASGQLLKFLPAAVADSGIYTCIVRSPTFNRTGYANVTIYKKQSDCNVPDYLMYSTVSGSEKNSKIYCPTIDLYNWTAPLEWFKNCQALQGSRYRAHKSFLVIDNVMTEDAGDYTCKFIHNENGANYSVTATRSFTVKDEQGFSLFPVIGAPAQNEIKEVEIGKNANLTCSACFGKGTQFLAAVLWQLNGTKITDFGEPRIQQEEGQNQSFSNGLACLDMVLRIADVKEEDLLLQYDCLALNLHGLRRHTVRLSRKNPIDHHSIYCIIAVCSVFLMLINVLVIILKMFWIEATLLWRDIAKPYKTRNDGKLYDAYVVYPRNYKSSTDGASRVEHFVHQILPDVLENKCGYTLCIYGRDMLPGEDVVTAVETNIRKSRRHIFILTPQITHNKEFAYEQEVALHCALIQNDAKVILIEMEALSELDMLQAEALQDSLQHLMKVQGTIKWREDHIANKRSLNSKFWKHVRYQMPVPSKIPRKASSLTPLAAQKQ

What follows are compounds tested against Interleukin-1 receptor-like 1 (Homo sapiens) (UniProt Q01638) (assay: blocks human ST2 binding to IL-33, primary screen, biochemical, AlphaLISA (AID 1259354)). Conditions: AlphaLISA ST2-Fc/biotin-IL-33 interaction, 1 h; at 17 µM, stronger effect = higher value.
In the case of `CC(CN1CCOCC1)NC1CCN(C(=O)NC2CCCCC2)CC1` (centres undefined), the inhibition is reported as inconclusive: 19%.
For `Cc1cc2nn(-c3ccccc3)nc2cc1N`, the inhibition was inconclusive: 27%.
For `CCN(CC)c1cc(C)c2cc(NC(=O)Cn3nc(C(F)(F)F)cc3C)ccc2n1`, the inhibition was “inactive”.
In the case of `O=C(O)c1nccnc1C(=O)Nc1ccc(Br)cc1`, the inhibition is reported as “inactive”.
In the case of `CN(Cc1ccco1)C(=O)CN1C(=O)CCc2cc(S(=O)(=O)N3CCCC3)ccc21`, the inhibition is reported as inconclusive: 10%.
In the case of `CN1[C@@H](CCC(=O)NCc2ccc(F)cc2)CNC(=O)[C@@H]2[C@H]1CCN2Cc1ccc(O)cc1`, the inhibition is reported as inconclusive: 10%.
With `CCC1CCC(C(=O)NC(C(=O)NCCN2CCOCC2)C(C)C)CC1` (centres undefined) the inhibition was inconclusive: 12%.
With `CC(=O)Nc1ccc(S(=O)(=O)N2C[C@@H]3C[C@H](C2)c2c(-c4ccc(OC(F)(F)F)cc4)ccc(=O)n2C3)cc1` the inhibition was inconclusive: 15%.
`COc1ccc(C2C3C(=O)NC(=O)C3ON2c2ccccc2)cc1` (centres undefined) was tested, and the inhibition was inconclusive: 10%.
`O=C1C2CCCN2C(c2c(F)cccc2Cl)N1c1cccc(Cl)c1` (centres undefined) was tested, and the inhibition was inconclusive: 14%.
With `Cc1ncc2c(c1CNC(=O)/C=C/c1ccccc1)CCN(C(=O)C1CC(=O)OC13CCCCC3)C2` (centres undefined) the inhibition was inconclusive: 22%.
With `CC1(C)C(c2ccccc2)=NC(c2ccccc2F)N1O` (centres undefined) the inhibition was “inactive”.
With `O=C(CN1C(=O)/C(=C\c2cccc(Cl)c2)Sc2ccccc21)NC1CCCC1` the inhibition was inconclusive: 14%.
In the case of `CCc1nc(N=C(N)N)nc2cc(C)ccc12`, the inhibition is reported as inconclusive: 20%.
`O=C(C1CC1)N1CCc2cc(S(=O)(=O)NCCCN3CCCCC3)ccc21` was tested, and the inhibition was inconclusive: 12%.
In the case of `COc1ccc(C(=O)c2oc3ccccc3c2N)cc1`, the inhibition is reported as inconclusive: 18%.
In the case of `COc1ncccc1C(=O)N(CC1CCN(Cc2ccccc2F)CC1)CC1CCCO1` (centres undefined), the inhibition is reported as inconclusive: 18%.
With `CCCn1nccc1C(=O)N1CCNCC1C(=O)N1CCCC1` (centres undefined) the inhibition was inconclusive: 13%.
In the case of `O=C(c1c(F)cccc1F)N1CCN=C1SCc1c(F)cccc1Cl`, the inhibition is reported as “inactive”.
With `CCOC(=O)c1c(-c2ccccc2)oc2cc(Br)c(OCC#N)cc12` the inhibition was “inactive”.
With `COc1ccc(/C=C2\CC(c3ccccc3)=CC2=O)cc1` the inhibition was active: 52%.
With `O=C(OCc1ccccc1)c1ccccc1` the inhibition was inconclusive: 21%.
For `Cc1nccc(N2CCOc3c(O)cc(-c4nc5ccccc5s4)cc3C2)n1`, the inhibition was inconclusive: 13%.
In the case of `CN(CCCNC(=O)c1cc(-c2ccncc2)nc2ccccc12)Cc1ccccc1`, the inhibition is reported as inconclusive: 25%.
In the case of `COc1ccccc1-c1ccnc(N[C@H]2CO[C@H]3[C@@H]2OC[C@@H]3NC(=O)Nc2cccc(C#N)c2)n1`, the inhibition is reported as inconclusive: 14%.
With `CCc1nc(CN2CCc3[nH]cnc3C2c2ccc(NC(C)=O)cc2)c(C)[nH]1` (centres undefined) the inhibition was “inactive”.
`COc1ccccc1N1CCN(C(=O)CSc2ccc(C)cc2)CC1` was tested, and the inhibition was inconclusive: 13%.
`Cc1ccc(OCc2nnc(SCC(=O)Nc3nccs3)n2Cc2ccccc2)cc1C` was tested, and the inhibition was “inactive”.
In the case of `Cc1nc(C(N)=O)c2c(n1)n(-c1ccc(C)c(C)c1)c(=O)n2C`, the inhibition is reported as inconclusive: 15%.
`CC1CCN(CN2CC(Cn3c4ccccc4c4ccccc43)OC2=O)CC1` (centres undefined) was tested, and the inhibition was “inactive”.
With `O=C1C2C3CC(C(Br)C3Br)C2C(=O)N1c1ccc(F)cc1` (centres undefined) the inhibition was “inactive”.
For `CC(C)CN1C[C@@H](C)[C@](O)(c2ccccc2)C[C@@H]1C`, the inhibition was “inactive”.
For `CN(CCNS(=O)(=O)c1cccc2nsnc12)Cc1ccccc1`, the inhibition was “inactive”.
`Clc1ccc(Cl)c(-c2nc3ccccc3o2)n1` was tested, and the inhibition was inconclusive: 12%.
For `C=CCN(c1ccccc1)S(=O)(=O)c1ccc2c(c1)CC(C)N2C(C)=O` (centres undefined), the inhibition was “inactive”.
For `COC(=O)/C=C/C(O)C(O)CC/C(C)=C/C1C=C(C)C(C)C2C(CC(C)C)NC(=O)C12O` (centres undefined), the inhibition was inconclusive: 15%.
For `CCOC(=O)C1=C(N)OC2=C(C(=O)CC(c3ccccc3)C2)C1c1ccc(O)c(OC)c1` (centres undefined), the inhibition was inconclusive: 11%.
For `COc1ccccc1NC(=O)NCCc1nc2cccnc2n1C1CCCCC1`, the inhibition was inconclusive: 14%.
`O=C(NCc1ccco1)c1ccc(Br)o1` was tested, and the inhibition was “inactive”.
With `N#C/C(=C\c1ccc(O)c(O)c1)C(=O)NCCCNC(=O)/C(C#N)=C/c1ccc(O)c(O)c1` the inhibition was inconclusive: 21%.
With `Cc1cc(NC(=O)c2noc3c2CCCC3)nn1Cc1ccc(Cl)cc1` the inhibition was inconclusive: 10%.
With `COc1cccc(CC(=O)NCc2cnn3ccccc23)c1` the inhibition was active: 33%.
In the case of `COc1cccc(/C=C2N=C(/C=C/c3ccccc3OC)OC\2=O)c1`, the inhibition is reported as inconclusive: 28%.
In the case of `CNc1ccc(Br)cc1-c1nc2ccccc2[nH]c1=O`, the inhibition is reported as inconclusive: 17%.
`COc1ccc(S(=O)(=O)N2CCSC2c2ccc3c4c(cccc24)CC3)cc1` (centres undefined) was tested, and the inhibition was “inactive”.
`COc1ccc2nc3oc(C(=O)N4CCCCCC4)cc3cc2c1` was tested, and the inhibition was “inactive”.
In the case of `CCC(=O)N1CCc2cc(Br)cc(S(=O)(=O)CCC(=O)N3CCCCC3)c21`, the inhibition is reported as inconclusive: 11%.
For `CC1(C)CC(=O)c2c(oc3ccc(NS(=O)(=O)c4ccccc4)cc23)C1`, the inhibition was “inactive”.
With `CC(C)(C)C(=O)Nc1c(-c2ccc(F)cc2)nc2ccccn12` the inhibition was “inactive”.
For `O=C(c1cc2ccccc2o1)N1CC(=O)N(C2CCCCC2)CC(OCc2ccncc2)C1` (centres undefined), the inhibition was inconclusive: 16%.
`COc1ccc(CN(C)C(=O)CC2(c3ccccc3F)CC(=O)N(C3CCCCC3)C2=O)cc1OC` (centres undefined) was tested, and the inhibition was inconclusive: 17%.
In the case of `CCCNC(=O)C1C2C=CC3(CN(Cc4cccs4)C(=O)C13)O2` (centres undefined), the inhibition is reported as “inactive”.
`CCCOc1ccc(C(O)=C2C(=O)C(=O)N(CCCn3ccnc3)C2c2ccccc2OC)cc1` (centres undefined) was tested, and the inhibition was “inactive”.
For `Cc1sc2ccccc2c1CN1CC(c2ccncc2)C1`, the inhibition was inconclusive: 13%.
In the case of `COc1ccc(Cl)cc1-c1ccc2c(c1)C(=O)N1CCN(C(=O)C3CCCCC3)C[C@@H]1C(=O)N2`, the inhibition is reported as inconclusive: 14%.
In the case of `COc1cc(-c2ccc(O)cc2)cc(=O)c2c(C)oc(C)c12`, the inhibition is reported as inconclusive: 25%.
With `COc1ccc(C2C(C#N)=C(N)N(c3ccc(OC)cc3OC)C3=C2C(=O)CC(C)(C)C3)cc1` (centres undefined) the inhibition was inconclusive: 18% and inconclusive: 14%.
For `CC(C)NC(=O)N1CCC[C@@H](O)[C@H](NC(=O)c2ccc(OCc3ccccc3)cc2)C1`, the inhibition was “inactive”.
With `O=C(Nc1nc(-c2ccccc2)cs1)c1c(O)c2ccccc2[nH]c1=O` the inhibition was inconclusive: 14%.
